Test results published in PMC4464076.
Results are given in words; binding and its absence hold for the method and conditions named. Binding seen in cells or lysates may run through a third protein. Some entries that bind do so weakly or less than the wild type. For some of these results: Tags and fused reporters may be left off the sequences shown.

The chains behind the UniProt entries cited, without tags or fusion partners. Where a name states a change or a piece, a line headed by the entry shows the natural chain unless it says otherwise.
UniProt Q15386: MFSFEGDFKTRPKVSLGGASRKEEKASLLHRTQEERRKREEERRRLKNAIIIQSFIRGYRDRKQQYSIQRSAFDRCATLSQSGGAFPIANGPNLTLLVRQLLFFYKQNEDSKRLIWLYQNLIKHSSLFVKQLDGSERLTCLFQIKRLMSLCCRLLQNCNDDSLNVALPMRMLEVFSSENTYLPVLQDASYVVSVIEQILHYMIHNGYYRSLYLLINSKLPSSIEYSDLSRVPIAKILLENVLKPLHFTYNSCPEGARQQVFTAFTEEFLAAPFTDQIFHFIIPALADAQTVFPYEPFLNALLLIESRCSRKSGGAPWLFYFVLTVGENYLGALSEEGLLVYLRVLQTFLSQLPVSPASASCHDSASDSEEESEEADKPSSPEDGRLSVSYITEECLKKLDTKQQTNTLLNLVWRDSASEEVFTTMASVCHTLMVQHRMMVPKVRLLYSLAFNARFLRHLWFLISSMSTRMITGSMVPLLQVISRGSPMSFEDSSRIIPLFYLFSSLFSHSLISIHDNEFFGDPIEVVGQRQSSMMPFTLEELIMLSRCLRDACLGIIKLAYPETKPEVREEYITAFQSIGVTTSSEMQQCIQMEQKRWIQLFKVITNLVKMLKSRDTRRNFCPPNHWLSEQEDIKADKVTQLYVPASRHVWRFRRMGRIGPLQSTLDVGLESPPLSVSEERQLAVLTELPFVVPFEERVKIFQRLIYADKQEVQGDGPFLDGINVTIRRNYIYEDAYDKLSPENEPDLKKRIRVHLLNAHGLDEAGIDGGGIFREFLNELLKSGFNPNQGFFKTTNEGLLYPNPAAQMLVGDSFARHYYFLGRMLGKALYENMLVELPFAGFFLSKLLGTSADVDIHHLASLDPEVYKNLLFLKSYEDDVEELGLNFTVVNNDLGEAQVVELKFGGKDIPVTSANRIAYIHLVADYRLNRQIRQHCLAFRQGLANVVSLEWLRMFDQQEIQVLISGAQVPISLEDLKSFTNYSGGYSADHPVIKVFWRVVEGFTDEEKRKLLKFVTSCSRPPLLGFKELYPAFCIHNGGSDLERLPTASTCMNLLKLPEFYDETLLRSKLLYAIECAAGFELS

What was measured:
V5-tagged ANXA7 (human) = molecular target: T1, V5-tagged ANXA7 (human) (UniProt P20073); experiment: co-IP; 293T cells transfected with Flag-UBE3C and V5-ANXA7; reciprocal immunoprecipitation with anti-Flag and anti-V5, immunoblotting
T1 sequence: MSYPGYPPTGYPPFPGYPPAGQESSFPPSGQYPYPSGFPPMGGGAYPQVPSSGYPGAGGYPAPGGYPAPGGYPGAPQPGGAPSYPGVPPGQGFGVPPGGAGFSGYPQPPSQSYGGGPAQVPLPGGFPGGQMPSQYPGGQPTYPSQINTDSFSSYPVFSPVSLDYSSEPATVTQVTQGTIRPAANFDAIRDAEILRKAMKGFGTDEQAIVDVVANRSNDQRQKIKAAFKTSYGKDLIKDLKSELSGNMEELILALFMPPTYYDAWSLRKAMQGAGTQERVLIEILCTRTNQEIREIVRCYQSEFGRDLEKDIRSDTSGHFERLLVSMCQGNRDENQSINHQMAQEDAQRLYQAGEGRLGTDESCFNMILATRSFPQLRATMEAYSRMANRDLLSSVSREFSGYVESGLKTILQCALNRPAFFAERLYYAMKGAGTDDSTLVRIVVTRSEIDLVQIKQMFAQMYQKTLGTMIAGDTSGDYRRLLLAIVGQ

[1] = molecular target: T2, Annexin A7 (ANXA7), endogenous in glioma cells (human (endogenous in U87, U251 and TJ899 glioblastoma cells)) (UniProt P20073); experiment: co-IP; endogenous proteins in glioma cell lysate (10 mM Tris pH 7.5, 150 mM NaCl, 1 mM CaCl2, 1 mM MgCl2, 1% Brij 97, 4 °C); immunoprecipitation with UBE3C or ANXA7 antibodies, immunoblotting
T2 sequence: T1 sequence

[2] = molecular target: Flag-tagged UBE3C (human) (UniProt Q15386); experiment: co-IP; 293T cells transfected with Flag-UBE3C and V5-ANXA7; reciprocal immunoprecipitation with anti-Flag and anti-V5, immunoblotting
[3] = molecular target: Ubiquitin-protein ligase E3C (UBE3C), endogenous in glioma cells (human (endogenous in U87, U251 and TJ899 glioblastoma cells)) (UniProt Q15386); experiment: co-IP; endogenous proteins in glioma cell lysate (10 mM Tris pH 7.5, 150 mM NaCl, 1 mM CaCl2, 1 mM MgCl2, 1% Brij 97, 4 °C); immunoprecipitation with UBE3C or ANXA7 antibodies, immunoblotting

## Flag-tagged UBE3C (from UniProt Q15386 1-1083) (enzyme)
V5-tagged ANXA7 (human)
  binding: binds

## Ubiquitin-protein ligase E3C (UBE3C), endogenous in glioma cells (from UniProt Q15386 1-1083) (enzyme)
[1]
  binding: binds

B1: V5-tagged ANXA7 (protein, UniProt P20073 1-488)
chain: T1 sequence
[2]
  binding: binds

B2: Annexin A7 (ANXA7), endogenous in glioma cells (protein, UniProt P20073 1-488)
chain: T1 sequence
[3]
  binding: binds
